From PMC4585807
Results are given in words; binding and its absence hold for the method and conditions named. For some of these results: Binding seen in cells or lysates may run through a third protein. Some entries that bind do so weakly or less than the wild type. Where a sequence is shown, tags or fusion partners need not be part of it.

T1: BD-VQ29 (Arabidopsis) (UniProt Q9SZG3)
T1 sequence: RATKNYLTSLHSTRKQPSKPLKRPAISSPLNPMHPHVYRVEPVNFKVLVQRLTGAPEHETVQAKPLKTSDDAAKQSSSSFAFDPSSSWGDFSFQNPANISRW


What follows are binders tested against T1, BD-VQ29 (Arabidopsis) (assay: two-hybrid; directed test in yeast Y2HGold; bait in pGBKT7 (Gal4 DNA-binding domain), prey in pGADT7; growth on selective media lacking Leu/Trp/His/Ade and containing 10 mM 3-aminotriazole).

Row | binding | Binder
1 | binds weakly | AD-VQ15 (protein, UniProt O80683 1-238) MVTSEGLASVDSWLYRQGFNVDSWLLSDTFSHDNDLLARALHTTVTAPHTLTPSSAFFDSSAVSHPSSTNTLSSTVSGASDPEIIGGGAKRKRNCLLTDGKAAKRRARASKKSQTTFITADPSNFRQMVQQVTGAKYIDDSSSFGIFDPIVKPEPLRFVNKLPCGPSDRSTAVPMLDTSAFLSNHHQENLAVGNAFSGNSSSVGLPSGKPSATADPGGSAVEFDNYPTFPTLESWKVM
2 | binds | AD-VQ21 (protein, UniProt Q8LGD5 1-222) MDPSEYFAGGNPSDQQNQKRQLQICGPRPSPLSVHKDSHKIKKPPKHPAPPPNRDQPPPYIPREPVVIYAVSPKVVHATASEFMNVVQRLTGISSGVFLESGGGGDVSPAARLASTENASPRGGKEPAARDETVEINTAMEEAAEFGGYAPGILSPSPALLPTASTGIFSPMYHQGGMFSPAIPLGLFSPAGFMSPFRSPGFTSLVASPTFADFFSHIWDQD
3 | binds | AD-VQ18 (protein, UniProt O64868 1-188) MEITQYQSFHEGSSSRVSMNRNSQVISKIKPKIRIIHIFAPEVIKTDVKNFRSLVQSLTGKPAPGEAKTGKKRAKSRITTPQEPVCDDHQPVNRLSGFTGLLANGGNHQVKEEWGSGDQSTSNTNTYFDLEGLIQDVGEDYFSSFPMRSSSSSQVEGFIFNNNNNNNNNNNNNNNNNTNFDTKAHNSS
4 | binds | AD-VQ13 (protein, UniProt O23660 1-204) MEKSPRYRDKAKNLLPSPSSCTTTPTRYVKDDMYETTFIRTDPSSFKQVVQLLTGIPKNPTHQPDPRFPPFHSIPPIKAVTNKKQSSSFRLSERRNSMKHYLNINPTHSGPPEILTPTILNFPALDLSPDTPLMSDPFYRPGSFSQSPSDSKPSFDDDQERSIKEKGFYLRPSPSTTPRDTEPRLLSLFPMTPIHSPAPSPHDH
5 | binds | AD-VQ17 (protein, UniProt O48522 1-172) MEIEATTVQKRRSLPTIAMHKQSRTLTKSKPKIRIIHIFAPEIIKTDVANFREIVQNLTGKQDHHHHDLPHQKGLKRNPRSRRSHDHHEVHDMNKSHGFCINSDEEEEGMVSMTWNGNGDESSGGFLNGLGDLDGFIQELGEFPYLPFTIDPAVASSSHLHGNVFAEPHHYA
6 | binds | AD-VQ29 (protein, UniProt Q9SZG3 1-123) MEATSQQFMSQSYLNAQETTTRATKNYLTSLHSTRKQPSKPLKRPAISSPLNPMHPHVYRVEPVNFKVLVQRLTGAPEHETVQAKPLKTSDDAAKQSSSSFAFDPSSSWGDFSFQNPANISRW

Second part, the binder before the results:

Row | Binder | binding
7 | AD-VQ9 (protein, UniProt Q9M9F0 1-311) MDKSCNSSGDSSAVSASATSSTGNNTTNRDHYLRQLNKLSHKISKPTNSSSSVSVANREIDLPPPPPLQINQGNLHQHQPPVYNINKNDFRDVVQKLTGSPAHERISAPPQQPIHHPKPQQSSRLHRIRPPPLVHVINRPPGLLNDALIPQGSHHMNQNWTGVGFNLRPTAPLSPLPPLPPVHAAAESPVSSYMRYLQNSMFAIDSNRKEFSGLSPLAPLVSPRWYQQQENAPPSQHNSFPPPHPPPPSSAVSQTVPTSIPAPPLFGCSSSPKSPYGLLSPSILLSPSSGQLGFPVSPTTVPLPSPKYKGH | binds
8 | AD-VQ11 (protein, UniProt Q9M8L3 1-177) MSHQQPPSYATEPNTMFVQADPSNFRNIVQKLTGAPPDISSSSFSAVSAAHQKLPLTPKKPAFKLHERRQSSKKMELKVNNITNPNDAFSHFHRGFLVSPVSHLDPFWARVSPHSAREEHHAQPDKEEQKAIAEKGFYFLPSPRSGSEPAPELLPLFPLRSPNGTNHRIHEDNHRDS | binds
9 | AD-VQ10 (protein, UniProt Q8VYI5 1-108) MSGRGKVKSEPMKVVFINTQYVETDARSFKTVVQELTGKNAIVAAGPFDSPSAFDGRCYDGGSKIGEDTRQLHGGGGGGGRMGTTTEFDRLFKEMPHMEELYKLWSEY | binds
10 | AD-VQ1 (protein, UniProt Q1G3U8 1-98) MSAGVRSEPMKVVFINTQYVQTDARSFKTIVQELTGKNAVVADGPYEFSGQGYGGKDSSQRFCGVGKEAERGVETTEFDSFFREMPPVGELYNLWSDH | binds
11 | AD-VQ5 (protein, UniProt Q3ED38 1-220) MYQRPQNDYLRVNKRKSNYDQLNADSNSVPQLAQTQPRVQVYIIDKNDFKSLVQQLTSPQPCDRLPQNIPKHQDIRPEPINWTSSIPPSAMAVQEDPDVSLYMAYLQSLLEESSGSNGDQFEEPFDKYHSHMMAQSQPQDPTQSMPQSNGFEPFPSSWFNGSTQEMHGASSLQSTRVDYEYPLPLTPNFTFSSMTQHEVFGSDLDSIGPDEDLEFSYEIN | binds weakly
12 | AD-VQ8 (protein, UniProt Q9CA36 1-152) MIPTRCNEINGSRPSSLKLAGESHTIKKTSSCKSKPRPHGRASPVIIYAHSPKVIHTRAEDFMALVQRLTGLDEIIRRNTSESSSSVVTEEVNVGDDNTAAPFSQDRTQRQKLTDMPLFTPSSMTLFGSPTQLMYMSPNRTDSFRPLVFKSE | binds

Each binder was assayed against VQ29-cYFP / VQ29-nYFP (Arabidopsis) (UniProt Q9SZG3) (assay: split reporter; BiFC with nYFP and cYFP fusions co-infiltrated by Agrobacterium EHA105 in N. benthamiana leaves; confocal microscopy 48 h after infiltration).

Row | binding | Binder
13 | binds | VQ29-cYFP / VQ29-nYFP (protein, UniProt Q9SZG3 1-123) MEATSQQFMSQSYLNAQETTTRATKNYLTSLHSTRKQPSKPLKRPAISSPLNPMHPHVYRVEPVNFKVLVQRLTGAPEHETVQAKPLKTSDDAAKQSSSSFAFDPSSSWGDFSFQNPANISRW
